Test results published in PubChem BioAssay AID651640 (Broad Institute, 2012).
The campaign covered roughly 350,000 compounds. About 6,000 (1.7%) were called active. Inconclusive results, whose numbers are uncertain, are shown with a selection of clear calls. Cut-off read from the data, not from the text of the source: active = CPE inhibition above about 20% (passing the limit was not always enough); inconclusive = no clear call, values can overlap the other calls; tested in BHK-21 cells.

Experiment: protection of cells from dengue 2 killing – plate reader, single concentration, primary screen (AID 651640);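 note: 0% = median of neutral control wells and 100% = median of positive control wells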
Conditions: DENV2-infected cells, cytopathic effect rescue, at 9.99 µM, active compounds read high

SMILES | CPE inhibition
C[C@@H]1CN([C@H](C)CO)C(=O)CCCn2nncc2CO[C@H]1CN(C)C(=O)Nc1cccc(C(F)(F)F)c1 | inactive: 2.76%
Cc1c(O)cc2c(c1O)C(=O)CC(c1ccc(O)cc1)O2 (stereo unspecified) | inconclusive: 24.5%
CCc1cc(Cn2nc(-c3ccccc3)cc2C(=O)NCc2cccc(Br)c2)on1 | active: 90%
COc1ccc(N(C(C)C(=O)Nc2ccc(S(=O)(=O)N3CCOCC3)cc2)S(C)(=O)=O)cc1 (stereo unspecified) | inconclusive: 23%
COc1cc(C2Nc3ccc4ccccc4c3C3=C2C(=O)CC(C)(C)C3)ccc1OC(C)C(=O)O (stereo unspecified) | inconclusive: 27.4%
CC1(C)OC(=O)C2=C(CC(CCc3ccccc3)OC2c2ccccc2)O1 (stereo unspecified) | inconclusive: 21.1%
CCOC(CNC(=O)c1ccc(CNC(=O)c2ccc(OC)c(OC)c2)cc1)OCC | inactive: 13.5%
CCCCC[C@@H](C)N1C[C@@H](COCc2ccccc2)Oc2cc(N3CC[C@H](O)C3)ccc2S1(=O)=O | inconclusive: 58.6%
CC(C)C[C@H](NC(=O)c1nc[nH]c1C(=O)NCC(=O)OC(C)(C)C)C(=O)OCc1ccccc1 | inconclusive: 28.9%
Cc1ccc(NC2CCCN(C(=O)c3ccoc3C)C2)cc1C (stereo unspecified) | active: 28%
Cc1cc(C)c(C(=O)COC(=O)C2CCN(c3ccc(C(F)(F)F)cn3)CC2)cc1C | inconclusive: 90.7%
CN(C)CC#Cc1ccc([C@H]2[C@H]3CN(C(=O)Nc4cc(F)ccc4F)CCCCN3[C@H]2CO)cc1 | inactive: -8.08%
CSc1cccc(NC(=S)Nc2ccc(F)cc2)c1 | inconclusive: 22.9%
C#CCN(Cc1ccccc1)S(=O)(=O)C=C | inconclusive: 52.8%
COc1ccc(CNC(=O)CN2CCN(S(=O)(=O)c3cccs3)CC2)cc1OC | inconclusive: 25.5%
COc1cc(C(=O)OCC(=O)NCC2CCCO2)cc(OC)c1OC (stereo unspecified) | inconclusive: 26.7%
CCn1cc([N+](=O)[O-])c(=O)c2cc(F)c(N3CCOCC3)cc21 | inconclusive: 24.5%
COc1ccc(C(=O)N2CCC2(C)C(=O)NC(C)C)cc1OC (stereo unspecified) | inconclusive: 43.9%
C[C@H](CO)N1C[C@H](C)[C@@H](CN(C)Cc2ccc(Cl)c(Cl)c2)Oc2c(NC(=O)C3CCOCC3)cccc2C1=O | inconclusive: 26.5%
Cc1ccc(S(=O)(=O)Nc2ccc3c(c2)C(=O)N([C@H](C)CO)C[C@@H](C)[C@@H](CN(C)C(=O)c2ccccc2)OCCCC[C@@H](C)O3)cc1 | inconclusive: 30.1%
C[C@H]1CN([C@@H](C)CO)C(=O)Cc2cc(NC(=O)Cc3cn(C)c4ccccc34)ccc2O[C@@H]1CN(C)C | inconclusive: 22.2%
COc1ccc2c3c([nH]c2c1)[C@@H](CO)N(Cc1ccccc1F)CC31CCN(CC2CC2)CC1 | inconclusive: 49.8%
CSc1ccc(Oc2cccc3c2S(=O)(=O)N(C2CC2)C[C@@H](COCc2ccccc2)O3)cc1C | inconclusive: 24.9%
Cc1c(N)cc(N)cc1C(=O)O | inactive: 4.32%
CC(=O)Nc1ccc(-c2ccnc3c2CC(C(=O)Nc2ccccc2)O3)cc1 (stereo unspecified) | active: 55.9%
CC1(C(=O)NCc2cc(F)cc(C(F)(F)F)c2)C=CC2(CCCCC2)N1C(=O)c1ccccc1 (stereo unspecified) | active: 100%

A second format for 3 compounds above.
SMILES	CPE inhibition
CCc1cc(Cn2nc(-c3ccccc3)cc2C(=O)NCc2cccc(Br)c2)on1	active: 90%
Cc1ccc(S(=O)(=O)Nc2ccc3c(c2)C(=O)N([C@H](C)CO)C[C@@H](C)[C@@H](CN(C)C(=O)c2ccccc2)OCCCC[C@@H](C)O3)cc1	inconclusive: 30.1%
CC(=O)Nc1ccc(-c2ccnc3c2CC(C(=O)Nc2ccccc2)O3)cc1 (stereo unspecified)	active: 55.9%

Following part:

SMILES | CPE inhibition
CCC(=O)NC[C@H]1[C@@H](c2ccccc2)[C@@H](CO)N1C(=O)C1CCC1 | inactive: 18.8%
COC(=O)Cn1c(CCC(=O)O)ccc1-c1ccccc1 | inconclusive: 20.9%
CC12CN3CC(C)(CN(C1)C3c1ccccc1)C2O (stereo unspecified) | inconclusive: 34.2%
COc1ccc2nc(NNC(=O)C3COc4ccccc4O3)sc2c1 (stereo unspecified) | inconclusive: 32.4%
C[C@H]1CN([C@@H](C)CO)C(=O)c2cc(NC(=O)Nc3ccccc3)ccc2O[C@@H]1CN(C)C(=O)Nc1ccc(C(F)(F)F)cc1 | active: 21.8%
Cn1cnc(S(=O)(=O)N2CCCCN3[C@H](CO)[C@@H](c4ccc(-c5ccccc5)cc4)[C@H]3C2)c1 | active: 25.6%
O=c1ccc2ccccc2c2ccccc12 | inactive: -10.8%
CC1=C(C(=O)N2CCOCC2)CC(CC(=O)NC2CC2)C(=O)N1CCC1=CCCCC1 (stereo unspecified) | inactive: -1.25%
O=C(Nc1ccc2c(c1)[C@H]1C[C@@H](CC(=O)N3CCOCC3)O[C@H](CO)[C@H]1O2)c1cccnc1 | inactive: 2.82%
CN(C)C(=O)c1ccc(-c2cccc(-c3nc(C(=O)NC4CCCC4)cc4c3[C@H](CCO)N([S@@](=O)C(C)(C)C)C4)c2)cc1 | inactive: -1.16%
C[C@@H]1CN([C@@H](C)CO)C(=O)c2cc(NC(=O)c3ccccc3)ccc2O[C@@H](C)CCCCO[C@H]1CN(C)Cc1ccc(C(F)(F)F)cc1 | active: 48.6%
COc1ccccc1CNC(=O)C1CCC1 | inconclusive: 68.1%
Cc1cccnc1C(NC(=O)C1CCN(Cc2ccc3ccccc3n2)CC1)c1ccc(Cl)cc1 (stereo unspecified) | inconclusive: 29.7%
O=C(O)Cn1nnc(COc2ccccc2)n1 | inconclusive: 41.4%
CCOc1ccc(OCC(=O)N(C)c2c(N)n(Cc3ccccc3)c(=O)[nH]c2=O)cc1 | active: 24.7%
COc1ccc2c3c([nH]c2c1)[C@H](CO)N(S(=O)(=O)c1cn(C)cn1)CC31CCN(Cc2ccccc2)CC1 | inactive: -4.02%
COC(=O)C1=C(C)N(Cc2ccc(C)cc2)C(=O)/C1=C\c1cc(OC)c(OC)c(OC)c1 | inactive: -1.44%
O=C(CNc1ccccc1Cl)c1ccc(Br)cc1 | inconclusive: 37.1%
CC(C)(C)[C@H]1C=C(C(=O)N2CCCCCCC2)O[C@@H](OCc2ccc(CO)cc2)C1 | active: 28.9%
O=C(Nc1cccnc1Cl)c1cccc(S(=O)(=O)N2CCOCC2)c1 | inconclusive: 26%
C[C@@H]1CN([C@@H](C)CO)S(=O)(=O)c2ccc(-c3ccccc3)cc2O[C@H]1CN(C)CC1CCCC1 | active: 38.8%
COC(=O)N/N=C(\C)c1cccs1 | inconclusive: 25.8%
Cc1ccc(-c2cnc3c(c2)C(=O)N([C@@H](C)CO)C[C@@H](C)[C@H](CN(C)C)O3)cc1 | inconclusive: 25.3%
CCCC(=O)N1CC2(CN(Cc3nccs3)C2)c2c([nH]c3cc(OC)ccc23)[C@@H]1CO | inconclusive: 51.5%
CN(C)c1ccc2c(c1)[C@@H]1C[C@@H](CC(=O)NCc3ccccc3F)O[C@@H](CO)[C@@H]1O2 | inactive: -0.956%
COC(=O)[C@]1(C)N[C@H](c2ccc(-c3cccc(Cl)c3)cc2)[C@@H]2C(=O)N(C)C(=O)[C@@H]21 | inactive: 3.31%

SMILES | CPE inhibition
CCC(=O)N(C)C[C@H]1Oc2ncc(Br)cc2C(=O)N([C@H](C)CO)C[C@H]1C | inactive: 4.39%
O=C(C[C@H]1CC[C@@H]2[C@H](COC[C@H](O)CN2C(=O)Nc2ccccc2)O1)NCCCN1CCOCC1 | inconclusive: 64.5%
C[C@@H]1CCCCO[C@H](CN(C)Cc2ccccc2)[C@H](C)CN([C@H](C)CO)C(=O)c2cc(NS(=O)(=O)c3cn(C)cn3)ccc2O1 | inactive: 5.09%
COc1cc(CN2CCCC(C(=O)c3ccc(C(C)(C)C)cc3)C2)cc(OC)c1O (stereo unspecified) | active: 25.8%
COc1ccc(NC(=S)NC2CC3CCC(C2)N3Cc2ccco2)cc1 (stereo unspecified) | inconclusive: 40.8%
CN1CCN(C(=O)C2=C[C@H](c3ccccc3)C[C@H](OCc3ccc(CO)cc3)O2)CC1 | inconclusive: 90.4%
Cc1cnc(CNC(=O)C2CCC(=O)N(Cc3ccc(Cl)cc3)C2)[nH]1 (stereo unspecified) | active: 71.9%
COc1cccc(CNS(=O)(=O)c2ccc3c(c2)N(C(C)=O)CCO3)c1 | inconclusive: 30.1%
Cc1cc(C)cc(C(=O)OCC(=O)NC2CCCC2)c1 | inconclusive: 23.6%
O=C(NCCc1ccccc1)[C@@H]1[C@@H](CO)[C@@H]2Cn3c(ccc(-c4cccc(F)c4)c3=O)[C@H]1N2 | inconclusive: 20.8%
COc1ccc(CNC(=O)C[C@H]2C=C[C@@H](NC(=O)c3cccc(F)c3)[C@H](CO)O2)cc1 | inconclusive: 22.6%
C[C@H](CO)N1C[C@H](C)[C@@H](CN(C)Cc2ccc(Cl)c(Cl)c2)OCCCC[C@H](C)Oc2ccc(N(C)C)cc2C1=O | active: 30.2%
Cc1ccc(C(=O)Nc2ccccc2C(=O)N2CC(C)OC(C)C2)cc1 (stereo unspecified) | inconclusive: 133%
O=C(CN1CCCCC1)N/N=C/c1cccc(C(F)(F)F)c1 | inconclusive: 22.4%
NC(=O)c1cc(C(=O)c2ccc(Cl)cc2Cl)c[nH]1 | active: 32.8%
O=C(CCS(=O)(=O)Cc1ccccc1)NCCc1ccccc1 | inactive: 0.747%
COc1ccc(S(=O)(=O)Nc2ccc3c(c2)C(=O)N([C@@H](C)CO)C[C@H](C)[C@H](CN(C)S(=O)(=O)c2ccc(Cl)cc2)OCCCC[C@H](C)O3)cc1 | active: 25.3%
COc1ccc(NC(=O)Nc2ccc3c(c2)CC(=O)N([C@@H](C)CO)C[C@H](C)[C@H](CN(C)C(=O)Nc2ccccc2)O3)cc1 | inconclusive: 27.8%
COC(=O)C1=NNC(C(=O)OC)C1c1ccccc1 (stereo unspecified) | inactive: 4.18%
CC1(Cc2cccc(C(F)(F)F)c2)C(=O)Nc2c(Cl)cccc21 (stereo unspecified) | inconclusive: 31.9%
Cc1ccccc1Nc1ccc2nonc2c1[N+](=O)[O-] | inactive: -3.04%
C=CCn1c(SCC(=O)Nc2ccc(F)cc2)nc2ccccc2c1=O | inconclusive: 21%
COc1ccc(NC(=O)Nc2ccc3c(c2)OC[C@H](C)NC[C@H](C)[C@H](OC)CN(C)C3=O)cc1 | inactive: 0.766%
CCCc1cc(=O)[nH]c(SCC(=O)NCC2COc3ccccc3O2)n1 (stereo unspecified) | inconclusive: 24.3%

2 compounds drawn at random from the list so far, as already listed:
SMILES | CPE inhibition
C[C@@H]1CCCCO[C@H](CN(C)Cc2ccccc2)[C@H](C)CN([C@H](C)CO)C(=O)c2cc(NS(=O)(=O)c3cn(C)cn3)ccc2O1 | inactive: 5.09%
CC1(Cc2cccc(C(F)(F)F)c2)C(=O)Nc2c(Cl)cccc21 (stereo unspecified) | inconclusive: 31.9%
